# Data from the supplement of paper PMC3334620.
# The full ranking holds about 33,000 sequences; the median of “E-score (-0.5 to 0.5)” is about -8e-05, and the highest 2% start at about 0.23. This is one part of the list.
# Molecular target: T1, Nrg2 (UniProt P38082)
# T1 sequence: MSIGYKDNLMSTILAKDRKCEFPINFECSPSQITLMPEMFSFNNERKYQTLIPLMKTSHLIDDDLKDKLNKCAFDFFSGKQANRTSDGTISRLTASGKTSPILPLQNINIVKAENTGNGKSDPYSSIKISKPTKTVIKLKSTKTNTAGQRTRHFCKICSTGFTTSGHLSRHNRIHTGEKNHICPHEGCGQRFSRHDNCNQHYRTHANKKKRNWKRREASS
# Test: PBM E-score (8-mer binding enrichment) (E-score (-0.5 to 0.5)); higher = stronger / more preferred TF binding
# Conditions: protein concentration: 100 nM; construct: GST-full length
# How it was run: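 Each ungapped eight-base word and its reverse complement, pooled, received an E-score from the Universal PBM Analysis Suite. Underlying scans, normalised with masliner, recorded fluorescent anti-GST bound to GST-tagged yeast transcription factors. These were applied at about 100-200 nM to universal all-10-mer Agilent arrays double-stranded by primer extension.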
row,Sequence,PBM E-score
1,ATTAGTAG,-0.0113
2,GACTATCC,0.0417
3,ACACCTCT,0.0761
4,CAGAGACA,-0.109
5,AACAACTT,0.141
6,GCCACGGA,-0.0858
7,CTCCCATC,-0.0905
8,ACACTTTG,0.00655
9,GAATTAGA,0.11
10,CGGCCTCA,0.0926
11,ACAACTTC,0.196
12,AGCTCGTC,0.00159
13,TTATGAAA,0.197
14,GCTGCAAA,0.056
15,ATGGCTGA,-0.0555
16,CGCCGGAC,0.0155
17,CAATCCTG,0.0834
18,CACTCCGG,0.165
19,AATCGAAG,0.264
20,CCGATGCC,-0.0207
21,ATTTGCGG,0.141
22,TAGCGAGA,-0.153

# 5 records picked at random from those above:
row,Sequence,PBM E-score
21,ATTTGCGG,0.141
19,AATCGAAG,0.264
20,CCGATGCC,-0.0207
18,CACTCCGG,0.165
6,GCCACGGA,-0.0858

# Remaining list, next part

row,Sequence,PBM E-score
1,AGCCTAGC,-0.248
2,AACCCTCT,-0.172
3,CCGCGTCA,-0.252
4,AGACCCGA,0.137
5,CTACACTC,-0.0863
6,TGCTACCA,-0.123
7,TAGCACGA,-0.01
8,ACCTCTTG,-0.0684
9,AACCCGAA,0.0237
10,CGACTTAG,-0.127
11,AACGGCGT,-0.11
12,AGTACGAG,0.0997
13,GCTAACTA,0.126
14,GCCCTAAA,-0.297
15,ACTCTTCG,-0.13
16,GCCCCTTA,0.114
17,ACTAACAT,0.146
18,ACTCCAGT,0.0302
19,GAGTTTAC,-0.0565
20,CTACTGTC,-0.0435
21,ACCAAACG,-0.0955
22,GAGGTCCC,0.0748

row,Sequence,PBM E-score
1,ATATTACC,0.193
2,TACTAGTA,0.149
3,AATTATCG,0.158
4,TGCGCACA,0.00373
5,GCTAGCAA,-0.0969
6,CGCGGGGC,0.0564
7,AATATAGC,0.0275
8,AGAAGAAA,0.0063
9,GAGTTCGA,0.142
10,AATCGGGG,-0.0292
11,GCTCTCGA,-0.0195
12,ACATAGGA,-0.154
13,ACTAGAGC,-0.0404
14,CAGCCGCC,-0.111
15,CAAGAGTA,0.0414
16,CCGACTCA,-0.0312
17,AGTTTGTA,0.0996
18,CGATCGGA,-0.114
19,GAGACCAC,-0.0605
20,AGGTTGAT,-0.098
21,ATACCAGC,0.0746
22,ATATCGAC,0.255

row,Sequence,PBM E-score
1,CGTATTCA,0.103
2,CGATTACG,-0.0644
3,GACCTACC,-0.0253
4,ATTTGAAG,-0.0398
5,CGTGACAC,0.0236
6,CGCGACTC,-0.0153
7,TATAGAGA,-0.181
8,CCATTTCA,-0.00809
9,AGCAGATG,-0.062
10,GCAACGAC,-0.153
11,CTCATGTA,0.0515
12,AATCGAAA,0.0902
13,AAAGCGGG,-0.166
14,AAATGAAG,0.0984
15,ACAAACCA,0.061
16,ACTGCTGA,-0.145
17,AACGCGCA,0.0385
18,AGATCAAA,0.0337
19,GCCATCTA,-0.016
20,CCTGTAGA,0.125
